A short description of this data set: general procedure: Boc solid-phase peptide synthesis; chloromethylated resin (Merrifield resin); Boc-L-Pro-O-(PAM)-resin; BOP reagent/DIEA for some couplings; acid chloride coupling. Conditions: for isolated mass: scale 1 mmole.
[1] abbreviates: whole synthesis, HPLC (Method G), scale of the general procedure 1 mmole.
Setting [2] is: whole synthesis, 214 nM, scale of the general procedure 1 mmole, head-to-tail ring.
[3] abbreviates: late stage modification step, HPLC (Method G).
[4] abbreviates: late stage modification step, 214 nM, head-to-tail ring.
[5] abbreviates: whole synthesis, scale of the general procedure 1 mmole.
Where [6] appears, read: whole synthesis, HPLC (Method G), scale of the general procedure 1 mmole, head-to-tail ring.
[7] abbreviates: late stage modification step, HPLC (Method G), head-to-tail ring.
Where [8] appears, read: late stage modification step, head-to-tail ring.
Where [9] appears, read: late stage modification step, 210 nM, head-to-tail ring.

These results are taken from EP0444898A1 (MERCK & CO. INC., priority 1990, dated 1991).

Values joined by “and” are separate entries in the source; they are usually repeats but may differ in a detail not shown here. Equal values may be shown once.

On to “c-[D,L-(1-Me)Trp-L-Ile-D-Pip-L-Pip-D-His-L-Pro] higher Rf isomer”, for which the “final HPLC purity” value under setting [1] was 100%.

For “c-[D-Phenylalanyl-L-isoleucinyl-D-pipecolyl-L-piperazin-2-yl(4-Cbz)-D-phenylalanyl-L-prolyl]”, under setting [2], the “final HPLC purity” value is on record as above 96%.

Consider “C-[D-(O-Benzyl)Tyrosyl-L-isoleucyl-D-pipecolyl-L-lysyl-D-(N-methyl)phenylalanyl-L-prolyl]”, for which the step yield (late stage modification step) came out at 95%. For the same substance, the “crude HPLC purity” value under setting [3] turned out to be 99%.

As for “c-[D-Phenylalanyl-L-threoninyl-D-prolyl-L-prolyl-D-phenylalanyl-L-prolyl]”, under setting [4], the “final HPLC purity” value is 97%.

For the substance “c-[D,L-(5-Me)Trp-L-Ile-D-Pip-L-Pip-D-His-L-Pro] higher Rf isomer”, the “final HPLC purity” value under setting [1] was 98%.

With “cyclo[D-MePhe-L-MeIle-D-Pip-L-Pip-D-MePhe-L-Pro]”, the step yield (late stage modification step) is recorded as 40%. Under setting [3], the “final HPLC purity” value was “purity 98%”.

For “c-[D-2-Nal-L-Ile-D-Pip-D-Pipe-D-His-L-Pro]”, for the setting “late stage modification step”, the step yield is given as 53%. Further, under setting [3], the “final HPLC purity” value is on record as 95%.

Regarding “cyclo[D-Trp-L-Nle-D-Pip-L-Pip-D-His-L-Pro]”, under setting [1], the “final HPLC purity” value was “purity 99%”. The substance also yielded an isolated mass (whole synthesis) of 252 mg. This substance also showed an isolated yield under setting [5] of 29%.

As to “cyclo[D-2-Nal-L-Ile-D-Pip-L-Pip-D-His-L-Pro]”, the “final HPLC purity” value under setting [1] was “purity 99%”. The substance further showed an isolated mass (whole synthesis) of 120 mg. Moreover, the isolated yield under setting [5] worked out at 12%.

With “c-[D-Phenylalanyl-L-isoleucinyl-D-pipecolyl-D-piperazin-2-yl-D-phenylalanyl-L-prolyl]”, the “final HPLC purity” value under setting [4] was above 99%.

Regarding “c-[D-Tryptophanyl-L-isoleucinyl-D-Δ-piperazyl-L-pipecolyl-D-histidyl-L-prolyl]”, for the setting “whole synthesis, 210 nM, scale of the general procedure 1 mmole, head-to-tail ring”, the “final HPLC purity” value is recorded as above 97%.

As for “c-[D-Phenylaianyl-L-isoleucyl-D-prolyl-L-pipecolyl-N-methyl-D-phenylalanyl-L-prolyl]”, the “final HPLC purity” value under setting [6] was 98.4% pure.

As for “c-[D-Phenylalanyl-L-isoleucyl-D-prolyl-L-prolyl-D-cysteinyl(Acm)-L-prolyl]”, for the setting “whole synthesis, 210 nM, scale of the general procedure 1 mmole”, the “final HPLC purity” value was 99%.

For “cyclo[D-Phe-L-Ile-D-Pip-L-Pip-3-PyrAla-L-Pro] isomer 1”, the “final HPLC purity” value under setting [1] is recorded as “purity 97%”. The isolated mass (whole synthesis) was 31 mg. Under setting [5], this substance registered an isolated yield of 4%.

As to “c-[D-Phenylalanyl-L-cyclohexylglycyl-D-prolyl-L-prolyl-D-phenylalanyl-L-prolyl]”, the “final HPLC purity” value (whole synthesis, 214 nM, scale of the general procedure 1 mmole) was 99%.

Take “c-[D-Phenylalanyl-L-isoleucyl-D-Δ-piperazyl-L-Lysyl-N-Me-D-phenylalanyl-L-prolyl]”: under setting [7], the “final HPLC purity” value is above 98%.

Turning to “c-[D-Tryptophanyl-L-isoleucinyl-D-Δ-piperazyl-L-piperazin-2-yl-N^α-Me-D-phenylalanyl-L-prolyl]”, the “final HPLC purity” value under setting [3] is recorded as above 96%.

The substance “Cyclo[D-Trp-L-Ile-D-Pip-L-Lys-D-Trp-L-Pro]” displayed a step yield (late stage modification step) of 33%. Further, the “final HPLC purity” value under setting [3] worked out at 99%.

In the case of “c-[D-Phenylalanyl-L-(O-tert-butyl)-threonyl-D-pipecolyl-L-pipecolyl-D-N-methy!-phenylalany!-L-prolyl]”, the “final HPLC purity” value under setting [6] is recorded as 98.5% pure.

As for “c-[D-Tryptophanyl-L-isoleucyl-D-pipecolyl-L-pipecolyl-D-(N-methyl)tyrosyl-L-prolyl]”, under setting [3], the “final HPLC purity” value is recorded as 99%. Besides, for the setting “late stage modification step, run 1”, the step yield is 94% and 53%.

Consider “Cyclo[D-tryptophanyl-L-isoleucyl-D-pipecolyl-L-pipecolyl-D-[im-(CH3)2]^+histidyl-L-prolyl] trifluoro-acetate”, for which the step yield (late stage modification step) was found to be 42%. For the same substance, the “final HPLC purity” value under setting [3] was “purity 99%”.

On to “cyclo[D-Phe-L-Ile-D-Pip-L-Pip-D-(Bzl)(NαMe)-Tyr-L-Pro]”, for which the “final HPLC purity” value under setting [1] is reported as “purity 98.4%”. The substance also came in with an isolated mass (whole synthesis) of 700 mg. Also, under setting [5], the isolated yield is on record as 84%.

As for “c-[D-Phenylalanyl-L-isoleucyl-D-glutamyl-L-asparagyl-D-phenylalanyl-L-prolyl]”, the “final HPLC purity” value under setting [6] came to 90.0% pure.

Turning to “c-[D-2-Naphthylalanyl-L-isoleucyl-D-pipecolyl-L-piperazin-2-yl-D-histidyl-L-prolyl]”, under “late stage modification step”, the step yield was determined as 38%. Under setting [3], the “final HPLC purity” value amounted to 99%.

On to “c-[D-Phenylalany-L-isoleucinyl-D-pipecolyl-L-piperazin-2-yl-D-(N^lm-methyl)histidinyl-L-prolyl]”, for which the “final HPLC purity” value under setting [3] is on record as above 97%.

For the substance “cyclo[D-Phe-L-Ile-D-Pip-L-(3,4-dehydro)-Pip-D-(NαMe)Phe-L-Pro]”, the “final HPLC purity” value under setting [1] was “purity 99%”. Further, the isolated mass (whole synthesis) is listed as 520 mg. Further, the isolated yield under setting [5] amounted to 70%.

With “c-[N-Me-D-Homophenylaianyl-N-Me-L-isoleucyl-D-pipecolyl-N-Me-D-phenylalanyl-L-prolyi]”, under “late stage modification step, 215 nM, head-to-tail ring”, the “final HPLC purity” value was above 97.5%. Under setting [8], this substance returned a step yield of 22.5%.

Under “late stage modification step”, “Cydo[D-Trp-L-Ile-D-Pip-L-Orn-D-(N^αMe)Phe-L-Pro]” yielded a step yield of 41%. Under setting [3], the “final HPLC purity” value was determined as 99%.

Turning to “c-[D-(O-Ethyl)-tyrosyl-D-isoleucyl-D-glutamyl-L-asparagyl-D-phenylalanyl-L-prolyl]”, the “final HPLC purity” value under setting [6] came to 94.0% pure.

“c-[D-Tyr-L-Ile-D-Pip-L-(Boc)Lys-D-(N-Me )-Phe-L-Pro]” had a step yield (late stage modification step) of 71%. The “crude HPLC purity” value under setting [3] is on record as 99%.

As to “c-[D-Phenylafanyt-L-isoleucyl-D-prolyl-L-prolyl-D-α-glutaminyl-L-prolyl]”, the “final HPLC purity” value under setting [2] came out at 99%.

On to “c-[D-Phenylalanyl-L-isoleucinyl-D-piperazin-2-yl-L-pipecolyl-D-phenyalanyl-L-prolyl]”, for which the “final HPLC purity” value under setting [4] was above 97.6%.

For “C-[D-tryptophanyl-L-isolelucyl-D-pipecolyl-L-pipecolyl-D-histidyl-L-prolyl]”, the “final HPLC purity” value under setting [6] was “purity 99%”. The same substance yielded an isolated mass (whole synthesis, head-to-tail ring) of 257 mg. Further, the isolated yield (whole synthesis, scale of the general procedure 1 mmole, head-to-tail ring) is 33%.

As to “c-[D-2-Naphthylalanyl-L-isoleucinyl-D-pipecolyl-L-piperazin-2-yl-D-(N^α-methyl)phenylalanyl-L-prolyl]”, under setting [3], the “final HPLC purity” value is above 97%.

In turn, “c-[D-(O-Methyl)Tyrosyl-L-isoleucyl-D-pipecolyl-L-(N-t-butyloxycarbonyl)lysyl-D-(N-methyl)phenylalanyl-L-prolyl]” displayed a step yield (late stage modification step) of 85%. Further, the “crude HPLC purity” value under setting [3] was found to be 95%.

“c-[D-Phenylalanyl-L-isoleucyl-D-prolyl-dehydroalanyl-N-methyl-D-phenylalanyl-L-prolyl]”: the “final HPLC purity” value under setting [7] worked out at 98.2% pure.

Consider “Cyclo(D-Phe-L-Ile-D-Pip-L-Pip-D-Lys-L-Pro]”, for which the step yield (late stage modification step) was 67%. In addition, under setting [3], the “final HPLC purity” value is given as 99%.

For “Cydo[D-Trp-L-Ile-D-Pip-L-(Cbz)Orn-D-(N^αMe)-Phe-L-Pro]”, under setting [1], the “final HPLC purity” value stood at 99%. For the same substance, the isolated mass (whole synthesis) turned out to be 500 mg. Further, the isolated yield under setting [5] amounted to 54%.

With “cyclo[D-Phe-L-Ile-D-(3,4-dehydro)-Pip-L-Pip-D-(NαMe)Phe-L-Pro]”, the “final HPLC purity” value under setting [1] was “purity 98.5%”. Also, the isolated mass (whole synthesis) was found to be 320 mg. This substance also gave an isolated yield under setting [5] of 45%.

For the substance “Cyclo[D-Phe-L-Ile-D-Pip-L-Pip-(p-nitro)-Phe-L-Pro]”, under setting [1], the “final HPLC purity” value was determined as 98%. The substance also returned an isolated mass (whole synthesis) of 800 mg. Under setting [5], the isolated yield was determined as 70%.

Turning to “cyclo[D-Phe-L-Ile-D-Pip-D-(3,4-dehydro)-Pip-D-(NαMe)Phe-L-Pro]”, the “final HPLC purity” value under setting [1] was “purity 99%”. Also, where the note is “whole synthesis”, the isolated mass amounted to 150 mg. Under setting [5], this substance showed an isolated yield of 20%.

Turning to “c-[D-Phenylalanyl-L-isoleucyl-D-pipecolyl(O-tert-bytyl)-L-aspartyl-N-methyl-D-phenylalanyl-L-prolyl]”, under setting [6], the “final HPLC purity” value stood at 94.7% pure.

For the substance “c-[D-Tryptophanyl-L-isoleucinyl-D-pipecolyl-L-piperazin-2-yl-D-phenylalanyl-L-prolyl]”, the “final HPLC purity” value under setting [9] was above 98.5%.

Consider “c-[D,L-(5-F)Trp-L-Ile-D-Pip-L-Pip-D-His-L-Pro] lower Rf isomer”, for which the “final HPLC purity” value under setting [1] came out at 94%.

For “c-[D-Phenylalanyl-L-isoleucinyl-D-prolyl-L-piperazin-2-yl-D-phenylalanyl-L-prolyl]”, the “final HPLC purity” value (late stage modification step, 254 nM, head-to-tail ring) is above 97%.

On to “c-[D-Tryptophanyl-L-isoleucyl-D-pipecolyl-(Nδ-Boc)-L-ornithyl-D-histidyl-L-prolyl] acetate salt”, for which the “final HPLC purity” value (whole synthesis, HPLC (Method G), scale of the general procedure 1 mmole, acetate salt) is listed as 92.2%.

“C-[D-2-Napthylalanyl-L-isoleucyl-D-pipecolyl-L-lysyl-D-(N-methyl)phenylalanyl-L-prolyl]”: the “crude HPLC purity” value under setting [7] is given as 99%. This substance also had a step yield under setting [8] of 98%.

For “c-[D-Phenylalanyl-L-isoleucyl-D-pipecolyl-Nβ-(imidazolylethyl)-L-asparagyl-N-methyl-D-phenylalanyl-L-protyl]”, the “final HPLC purity” value under setting [7] was 99.4% pure.

Turning to “c-[D-Tryptophanyl(t-butylacetyl)-L-isoleucinyl-D-pipecolyl-L-piperazin-2-yl(4-t-butylacetyl)-D-(Na-Me)phenyla lanyl-L-prolyl]”, the “final HPLC purity” value under setting [9] is listed as above 98%.
